Measurements published in paper PMC6687201, “Atg11 tethers Atg9 vesicles to initiate selective autophagy” (PLoS Biology, 2019).

Biological target: GFP-tagged Atg11^Δdim (S. cerevisiae)
Test: co-IP; IP of GFP-tagged Atg11 or its fragments, co-IP of HA-tagged Atg9; lysates of log-phase growing and 2 h starved cells

B1: HA-tagged Atg9 (natural protein, S. cerevisiae, UniProt Q12142 1-997, looked up)
chain: MERDEYQLPNSHGKNTFLSRIFGLQSDEVNPSLNSQEMSNFPLPDIERGSSLLHSTNDSREDVDENDLRVPESDQGTSTEEEDEVDEEQVQAYAPQISDGLDGDHQLNSVTSKENVLETEKSNLERLVEGSTDDSVPKVGQLSSEEEEDNEFINNDGFDDDTPLFQKSKIHEFSSKKSNTIEDGKRPLFFRHILQNNRPQRDTQKLFTSSNAIHHDKDKSANNGPRNINGNQKHGTKYFGSATQPRFTGSPLNNTNRFTKLFPLRKPNLLSNISVLNNTPEDRINTLSVKERALWKWANVENLDIFLQDVYNYYLGNGFYCIILEKILNICTLLFVVFVSTYMGHCVDYSKLPTSHRVSDIIIDKCYSNSITGFTKFFLWMFYFFVILKIVQLYFDVQKLSELQNFYKYLLNISDDELQTLPWQNVIQQLMYLKDQNAMTANVVEVKAKNRIDAHDVANRIMRRENYLIALYNSDILNLSLPIPLFRTNVLTKTLEWNINLCVMGFVFNESGFIKQSILKPSQREFTREELQKRFMLAGFLNIILAPFLVTYFVLLYFFRYFNEYKTSPGSIGARQYTPIAEWKFREYNELYHIFKKRISLSTTLANKYVDQFPKEKTNLFLKFVSFICGSFVAILAFLTVFDPENFLNFEITSDRSVIFYITILGAIWSVSRNTITQEYHVFDPEETLKELYEYTHYLPKEWEGRYHKEEIKLEFCKLYNLRIVILLRELTSLMITPFVLWFSLPSSAGRIVDFFRENSEYVDGLGYVCKYAMFNMKNIDGEDTHSMDEDSLTKKIAVNGSHTLNSKRRSKFTAEDHSDKDLANNKMLQSYVYFMDDYSNSENLTGKYQLPAKKGYPNNEGDSFLNNKYSWRKQFQPGQKPELFRIGKHALGPGHNISPAIYSTRNPGKNWDNNNNGDDIKNGTNNATAKNDDNNGNNDHEYVLTESFLDSGAFPNHDVIDHNKMLNSNYNGNGILNKGGVLGLVKEYYKKSDVGR
notes: Atg9, transmembrane autophagy protein, yeast; also called HA-Atg9; source: yeast cells expressing HA-tagged Atg9, in lysate
- binding: binds

Results are given in words; binding and its absence hold for the method and conditions named. Binding seen in cells or lysates may run through a third protein. A result given as binding can be weak or reduced; the word gives no strength. Sequences can lack the tags named with a protein.
